Source: PubChem BioAssay AID588499 (NMMLSC, 2011)
Screen size: about 360,000 compounds; about 610 (0.17%) were called active. This list was built around the results that the source calls inconclusive (neither active nor inactive); the mix of calls is not that of the screen. No stated cut-off is given here; in the data, active means inhibition above about 30%; inconclusive means no clear call, values can overlap the other calls; inactive means below that.

test system: Botulinum neurotoxin type A light chain protease (Clostridium botulinum A str. ATCC 3502); assay: blockers of BoNT/A LC substrate cleavage – biochemical, flow cytometry, MLPCN library, primary screen (AID 588499); conditions: multiplex microsphere protease substrate cleavage, at 10 µM, hits give high values; further: plate controls were buffer without enzyme for full effect and enzyme alone for no effect

Compound | inhibition
CNC(=O)c1ccc(-c2sc3nc(N4CCOCC4)c4c(c3c2N)CC(C)(C)OC4)o1 | inactive: 1.3%
CCCc1ncc(CN2CCCCC2C(=O)Nc2ccc(Oc3ccccc3)nc2)cn1 (stereo not drawn) | inactive: -1.5%
Cc1c(C(=O)NCCC#N)sc(=O)n1Cc1ccc(C(=O)N(C)C)cc1 | inactive: -0.5%
Cn1cccc1/C=N/N1CCN(Cc2ccccc2)CC1 | inconclusive: -47.4%
Cc1cc(C(=O)NCCCN2CCCC2=O)no1 | inconclusive: -9.2%
Brc1ccc(-c2csc(N3CCC(c4ccccc4)C3)n2)cc1 (stereo not drawn) | inconclusive: 0%
COc1ccccc1C(=O)NCCC(=O)N1CC(C)OC(C)C1 (stereo not drawn) | inactive: -0.8%
CCn1c(SCC(=O)N/N=C/C=C\c2ccccc2[N+](=O)[O-])nc2ccccc21 | inconclusive: -1.1%
O=S(=O)(Nc1ccc(S(=O)(=O)N2CCCC2)cc1)c1ccccc1Br | inactive: -1.4%
CCN(CC)S(=O)(=O)c1ccc(F)c(C(=O)NCCC(C)C)c1 | inconclusive: -4.2%
CC1(C(=O)NCc2ccc3c(c2)OCO3)CCN1Cc1csc2ccccc12 (stereo not drawn) | inactive: 0.1%
CC1(C)C(c2ccccc2)=NC(c2cccnc2)N1O (stereo not drawn) | inconclusive: 0.9%
Cc1ccc(NC(=O)C2CCN(S(C)(=O)=O)CC2)c(C)c1 | inconclusive: 4.6%
CCOc1cc(CNn2cnnc2)cc(Br)c1OCC(=O)NC1CCCCC1 | inconclusive: -1.8%
CCN(CC)S(=O)(=O)c1ccc2[nH]c(=O)c3ccccc3c2c1 | inconclusive: -2.3%
Cc1c(C#N)c2ccccc2n1CC(=O)NC(C)c1ccccc1 (stereo not drawn) | inconclusive: 3.3%
Cc1ccc(C(=O)NCC(c2ccc(F)cc2)N2CCOCC2)cc1S(=O)(=O)N1CCOCC1 (stereo not drawn) | inconclusive: -2.5%
COc1ccc(-c2nnc(SCC(=O)Nc3ccc(Cl)cc3)n2C)cc1 | inconclusive: -4.2%
CN1C(=O)CSc2ccc(NC(=O)NCc3ccccc3)cc21 | inactive: -0.6%
CCc1ccc(-c2cc(C(F)(F)F)n3nc(C(=O)Nc4c(C)nn(Cc5ccc(F)cc5)c4C)cc3n2)s1 | active: 32.7%

Compound | inhibition
CN(C)CCNC(=O)C1CCCNC1=O (stereo not drawn) | inconclusive: -1.8%
Cc1c(OCC(=O)NCc2ccccn2)ccc2c(-c3ccccc3)cc(=O)oc12 | inactive: 1%
CSc1ccccc1C(=O)Nc1ccc(C)c(C)c1 | inconclusive: 0.6%
Cc1cc2c(NC(=O)Nc3ccc(C(C)(C)C)cc3)cccc2nn1 | inconclusive: -32.7%
CC1(C)CC(=O)C=C(N2CCCC2)C1 | inconclusive: 3.9%
O=c1c2ccccc2nnn1CSc1nnc(COc2ccc(Cl)cc2)n1Cc1ccco1 | inconclusive: -0.6%
O=C(O)c1cccc2c1C(=O)c1ccc(N3CCN(Cc4ccc5c(c4)OCO5)CC3)cc1S2(=O)=O | inactive: 0.7%
CN1CCN(Cc2c(C#N)c3ccccc3n2C)CC1 | inconclusive: 0.8%
COc1ccc(Cl)cc1C(=O)Nc1cccnc1Cl | inactive: -3.4%
NS(=O)(=O)c1cnccc1Oc1cccc(Cl)c1 | inconclusive: 0.5%
Cc1ccc(N2C(=O)CC(Sc3cccs3)C2=O)cc1 (stereo not drawn) | inconclusive: 17.2%
COc1ccc(OC)c(NC(=O)CSc2ncccn2)c1 | inconclusive: -2.2%
Cc1ccc(CC(=O)O/N=C(\N)c2ccncc2)cc1 | inactive: -0.9%
CCCCc1cc(=O)oc2c(C)c(OCC(=O)NCCN3CCOCC3)ccc12 | inconclusive: -0.1%
COc1ccc(/C=N\Nc2ccccn2)c(OC)c1 | inactive: -0.9%
COc1ccc(NC(=O)NCCN2CCN(c3ccc(C)cc3)CC2)c(Cl)c1 | inconclusive: -0.3%
O=[N+]([O-])c1ccccc1Nc1ccccc1 | inactive: -0.8%
CCOC(=O)N1CCN(c2c(F)cc3[nH]c(=S)[nH]c3c2Br)CC1 | inactive: 0.7%
N#Cc1c2n(c3c(=O)n(Cc4ccccc4Cl)cnc13)CCCCC2 | inactive: -0.6%
CC(C)(C)Nc1nc2ccc([N+](=O)[O-])cc2o1 | inconclusive: -25.8%

Exported with tabs: part of the list above
Compound	inhibition
Brc1ccc(-c2csc(N3CCC(c4ccccc4)C3)n2)cc1 (stereo not drawn)	inconclusive: 0%
O=S(=O)(Nc1ccc(S(=O)(=O)N2CCCC2)cc1)c1ccccc1Br	inactive: -1.4%
COc1ccc(OC)c(NC(=O)CSc2ncccn2)c1	inconclusive: -2.2%
COc1ccc(/C=N\Nc2ccccn2)c(OC)c1	inactive: -0.9%
N#Cc1c2n(c3c(=O)n(Cc4ccccc4Cl)cnc13)CCCCC2	inactive: -0.6%

Following part:

Compound | inhibition
O=C(CSc1oc(-c2cccs2)nc1S(=O)(=O)c1ccccc1)NC1CCCCC1 | inconclusive: 1.8%
Cc1cccc(NC(=O)c2cccc(N3C(=O)C4C5CCC(C5)C4C3=O)c2)c1C (stereo not drawn) | inconclusive: 8.9%
COc1ccc(-c2nnn(CC(=O)N(Cc3ccccc3Cl)C(C(=O)NCC3CCCO3)c3ccco3)n2)cc1OC (stereo not drawn) | inconclusive: -0.4%
CN(C)c1ccc(CNn2cnnc2SCC(=O)NC(C)(C)C)cc1 | inactive: -0.1%
CC(C)N(C(=O)CSc1nnc(-c2cc3ccccc3cc2O)n1Cc1ccco1)C(C)C | inconclusive: 1.3%
O=C(COC(=O)C1CCN(S(=O)(=O)c2cccs2)CC1)c1ccc2c(c1)OCCO2 | inactive: 1%
O=C(NCC1CCCCC1)C1CCCN(C(=O)NC2CCCCC2)C1 (stereo not drawn) | inconclusive: -7%
Cn1c(=O)cc(SCC(=O)NCCN2CCN(c3ccccc3F)CC2)c2cc(Cl)ccc21 | inconclusive: 0.8%
COc1ccc(CC(=O)Oc2ccc(C(C)(C)C)cc2)cc1S(=O)(=O)N1CCOCC1 | inconclusive: 4.5%
COc1ccccc1NC(=O)c1ccc(-c2ccccc2F)o1 | inconclusive: 0%
O=C(CSc1nc(=O)n2ccccc2n1)OCc1ccccc1 | inconclusive: 2.4%
COc1cc(/C=C\C(=O)NCc2ccc3c(c2)cc(C)n3C)cc(OC)c1OC | active: 68.2%
CCCNC(=O)c1c(N)n(-c2ccc3c(c2)OCO3)c2nc3ccccc3nc12 | inconclusive: 0.5%
COc1ccccc1-c1c(C)oc2c(CN3CCN(C)CC3)c(O)ccc2c1=O | inconclusive: -3.3%
CCN(CC)S(=O)(=O)c1cccc(C(=O)N[C@H](C(=O)NCc2ccccc2F)C(C)C)c1 | inconclusive: -0.9%
CCc1c(C(=O)OCc2ccccc2)[nH]c(C)c1C | inconclusive: 19.8%
Cc1c(CCC(=O)N2C[C@H]3C[C@@H](C2)c2cccc(=O)n2C3)c(=O)oc2c(C)c(O)ccc12 | inactive: 0%
COc1ccc(-n2cnnc2SCC(=O)c2ccc(S(=O)(=O)N3CCOCC3)cc2)cc1 | inconclusive: -1%
